In patent US20230416740A1:
No constants are given. Whether binding was seen depends on the method and setting. In cells and extracts the contact can be indirect. Some entries that bind do so weakly or less than the wild type.

Amino acid sequences for entries named in this document (tags omitted). Residues count along the entry.
UniProt Q8K212, residues 114-961: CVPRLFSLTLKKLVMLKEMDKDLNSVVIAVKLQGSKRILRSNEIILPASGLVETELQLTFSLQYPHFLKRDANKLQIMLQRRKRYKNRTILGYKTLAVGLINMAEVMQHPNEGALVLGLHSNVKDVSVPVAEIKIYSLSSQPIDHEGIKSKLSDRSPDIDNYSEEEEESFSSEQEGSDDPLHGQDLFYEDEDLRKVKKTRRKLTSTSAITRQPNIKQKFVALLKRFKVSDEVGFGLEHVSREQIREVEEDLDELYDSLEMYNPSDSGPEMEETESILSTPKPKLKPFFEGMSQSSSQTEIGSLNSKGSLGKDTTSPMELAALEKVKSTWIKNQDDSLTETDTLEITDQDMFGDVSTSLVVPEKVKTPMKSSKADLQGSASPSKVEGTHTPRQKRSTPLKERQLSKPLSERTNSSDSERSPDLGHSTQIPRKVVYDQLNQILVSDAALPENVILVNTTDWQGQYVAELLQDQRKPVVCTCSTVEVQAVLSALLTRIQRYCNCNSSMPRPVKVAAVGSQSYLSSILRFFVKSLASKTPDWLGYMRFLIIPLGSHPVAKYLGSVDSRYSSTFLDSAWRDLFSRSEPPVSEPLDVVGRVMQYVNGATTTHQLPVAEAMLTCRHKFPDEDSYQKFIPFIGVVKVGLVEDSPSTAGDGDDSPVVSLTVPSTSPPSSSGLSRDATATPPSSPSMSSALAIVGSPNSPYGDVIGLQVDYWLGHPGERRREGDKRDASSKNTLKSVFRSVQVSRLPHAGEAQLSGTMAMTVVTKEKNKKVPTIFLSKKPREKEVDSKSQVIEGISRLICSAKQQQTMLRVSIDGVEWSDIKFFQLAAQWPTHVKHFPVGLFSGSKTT

Target: T1, WD repeat domain protein 37 (Wdr37) from wild-type murine B cell extract (mouse) (UniProt Q8CBE3)
T1 sequence (looked up): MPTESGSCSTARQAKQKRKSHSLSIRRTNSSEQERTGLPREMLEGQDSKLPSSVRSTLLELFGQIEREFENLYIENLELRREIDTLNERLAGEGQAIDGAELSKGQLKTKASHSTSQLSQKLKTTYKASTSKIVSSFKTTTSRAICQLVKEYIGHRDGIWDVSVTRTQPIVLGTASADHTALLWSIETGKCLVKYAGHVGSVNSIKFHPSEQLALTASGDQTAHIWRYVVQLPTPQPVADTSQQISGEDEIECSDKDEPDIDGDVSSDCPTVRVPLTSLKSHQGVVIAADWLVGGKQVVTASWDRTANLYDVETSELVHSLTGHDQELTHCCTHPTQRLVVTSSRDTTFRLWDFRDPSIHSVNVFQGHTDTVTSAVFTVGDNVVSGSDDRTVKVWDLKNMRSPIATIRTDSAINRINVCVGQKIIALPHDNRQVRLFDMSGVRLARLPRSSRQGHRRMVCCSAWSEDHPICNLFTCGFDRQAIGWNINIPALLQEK
Assay: bead-immobilized FLAG-Pacs1 incubated with murine B cell extract, co-IP LC-MS/MS, enrichment over beads alone

binding: binds
Substance: FLAG-Pacs1 (bait of the co-IP mass spectrometry) (from UniProt Q8K212 114-961)
